For 38 targets, log2 fold change results are on record in the supplement of paper PMC10849652.

Chains of the proteins cited; added tags and fusions are not shown. Lines headed by an entry give the natural chain unless they say otherwise; changes in a name come on top.
UniProt O43615: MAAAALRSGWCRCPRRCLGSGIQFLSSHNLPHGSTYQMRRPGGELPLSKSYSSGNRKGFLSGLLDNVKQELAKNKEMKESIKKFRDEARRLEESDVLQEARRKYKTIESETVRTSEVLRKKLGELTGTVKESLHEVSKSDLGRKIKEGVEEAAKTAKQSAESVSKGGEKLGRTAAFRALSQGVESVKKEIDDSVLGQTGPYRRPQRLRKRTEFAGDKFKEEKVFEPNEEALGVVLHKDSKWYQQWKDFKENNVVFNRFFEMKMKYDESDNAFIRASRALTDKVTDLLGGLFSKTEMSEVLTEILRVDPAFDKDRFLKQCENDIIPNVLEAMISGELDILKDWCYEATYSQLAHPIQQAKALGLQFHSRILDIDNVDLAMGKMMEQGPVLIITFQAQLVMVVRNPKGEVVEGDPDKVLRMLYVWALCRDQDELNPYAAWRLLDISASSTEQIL
UniProt Q9H5L6: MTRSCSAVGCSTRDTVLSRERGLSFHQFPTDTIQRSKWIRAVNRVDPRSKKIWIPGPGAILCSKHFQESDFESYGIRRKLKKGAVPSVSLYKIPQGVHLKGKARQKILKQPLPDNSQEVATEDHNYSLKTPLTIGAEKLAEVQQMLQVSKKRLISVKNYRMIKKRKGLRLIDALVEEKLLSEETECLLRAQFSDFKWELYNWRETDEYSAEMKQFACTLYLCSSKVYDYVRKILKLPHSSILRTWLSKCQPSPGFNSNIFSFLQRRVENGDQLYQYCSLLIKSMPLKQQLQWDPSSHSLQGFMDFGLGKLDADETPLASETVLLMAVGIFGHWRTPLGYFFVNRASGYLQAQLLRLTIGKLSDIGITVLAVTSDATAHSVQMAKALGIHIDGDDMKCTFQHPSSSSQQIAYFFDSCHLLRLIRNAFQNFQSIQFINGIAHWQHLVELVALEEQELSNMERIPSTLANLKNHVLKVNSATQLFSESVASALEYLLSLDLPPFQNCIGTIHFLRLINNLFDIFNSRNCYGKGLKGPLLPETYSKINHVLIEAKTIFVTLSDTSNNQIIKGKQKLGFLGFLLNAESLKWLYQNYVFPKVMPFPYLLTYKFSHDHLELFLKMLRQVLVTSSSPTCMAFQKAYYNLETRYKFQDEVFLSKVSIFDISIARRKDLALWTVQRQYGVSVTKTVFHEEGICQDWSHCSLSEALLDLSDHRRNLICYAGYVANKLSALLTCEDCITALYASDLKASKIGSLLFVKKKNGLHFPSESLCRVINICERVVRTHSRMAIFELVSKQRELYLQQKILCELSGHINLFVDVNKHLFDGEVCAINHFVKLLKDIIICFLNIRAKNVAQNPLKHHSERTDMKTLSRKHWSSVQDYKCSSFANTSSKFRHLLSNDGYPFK
UniProt Q9Y5L4: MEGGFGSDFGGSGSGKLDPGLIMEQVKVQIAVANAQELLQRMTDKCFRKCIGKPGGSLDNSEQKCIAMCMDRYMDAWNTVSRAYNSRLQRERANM
UniProt Q13445: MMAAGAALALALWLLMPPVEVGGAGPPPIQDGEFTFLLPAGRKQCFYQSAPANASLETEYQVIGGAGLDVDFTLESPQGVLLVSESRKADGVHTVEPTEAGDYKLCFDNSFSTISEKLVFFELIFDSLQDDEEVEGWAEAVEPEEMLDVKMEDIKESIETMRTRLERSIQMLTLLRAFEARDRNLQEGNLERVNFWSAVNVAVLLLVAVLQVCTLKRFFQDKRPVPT
UniProt Q9BVV7: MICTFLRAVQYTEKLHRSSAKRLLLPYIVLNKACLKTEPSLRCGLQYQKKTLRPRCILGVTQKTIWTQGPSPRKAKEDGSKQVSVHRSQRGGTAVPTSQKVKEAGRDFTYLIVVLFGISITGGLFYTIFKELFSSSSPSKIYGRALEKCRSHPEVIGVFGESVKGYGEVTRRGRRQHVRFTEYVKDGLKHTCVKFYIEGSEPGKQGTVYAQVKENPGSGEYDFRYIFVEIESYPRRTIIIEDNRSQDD
UniProt Q9BZW5, whole entry, looked up: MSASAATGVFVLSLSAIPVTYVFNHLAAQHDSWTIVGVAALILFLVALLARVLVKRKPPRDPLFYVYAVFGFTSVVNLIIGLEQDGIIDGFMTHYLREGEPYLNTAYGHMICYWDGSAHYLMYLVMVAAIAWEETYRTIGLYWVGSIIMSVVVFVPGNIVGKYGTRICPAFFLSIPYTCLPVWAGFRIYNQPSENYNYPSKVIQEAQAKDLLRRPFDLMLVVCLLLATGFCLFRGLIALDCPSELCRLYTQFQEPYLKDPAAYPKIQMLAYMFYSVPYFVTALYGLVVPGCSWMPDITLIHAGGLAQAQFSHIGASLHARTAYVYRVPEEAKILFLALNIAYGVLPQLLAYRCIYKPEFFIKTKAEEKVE
UniProt Q96EK4, whole entry, looked up: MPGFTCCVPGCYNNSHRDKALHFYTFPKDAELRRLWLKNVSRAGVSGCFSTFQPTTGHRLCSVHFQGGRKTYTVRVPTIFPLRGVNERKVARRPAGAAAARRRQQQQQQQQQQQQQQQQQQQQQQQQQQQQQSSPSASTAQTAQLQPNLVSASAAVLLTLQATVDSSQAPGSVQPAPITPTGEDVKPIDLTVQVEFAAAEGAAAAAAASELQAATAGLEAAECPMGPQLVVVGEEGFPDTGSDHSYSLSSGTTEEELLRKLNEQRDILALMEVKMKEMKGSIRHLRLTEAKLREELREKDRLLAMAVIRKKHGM
UniProt Q6I9Y2: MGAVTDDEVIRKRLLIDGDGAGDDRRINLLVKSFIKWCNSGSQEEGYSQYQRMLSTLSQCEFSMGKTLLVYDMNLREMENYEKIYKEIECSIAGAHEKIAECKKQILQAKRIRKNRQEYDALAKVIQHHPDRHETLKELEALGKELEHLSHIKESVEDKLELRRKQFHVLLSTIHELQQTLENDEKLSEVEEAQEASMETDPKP
UniProt Q9P2C4: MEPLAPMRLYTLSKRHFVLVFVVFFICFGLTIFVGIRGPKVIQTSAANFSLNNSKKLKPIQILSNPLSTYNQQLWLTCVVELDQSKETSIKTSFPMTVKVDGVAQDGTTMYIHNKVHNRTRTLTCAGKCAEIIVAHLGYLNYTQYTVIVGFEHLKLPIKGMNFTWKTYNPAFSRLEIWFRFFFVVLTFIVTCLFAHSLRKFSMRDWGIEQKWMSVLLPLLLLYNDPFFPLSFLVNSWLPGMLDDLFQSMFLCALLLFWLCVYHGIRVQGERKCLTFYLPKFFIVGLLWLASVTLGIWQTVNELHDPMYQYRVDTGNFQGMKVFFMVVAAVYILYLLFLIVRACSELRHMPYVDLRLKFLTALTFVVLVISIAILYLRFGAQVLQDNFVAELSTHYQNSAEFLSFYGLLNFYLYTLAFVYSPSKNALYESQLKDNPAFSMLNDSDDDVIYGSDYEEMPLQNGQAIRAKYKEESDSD
UniProt P04183: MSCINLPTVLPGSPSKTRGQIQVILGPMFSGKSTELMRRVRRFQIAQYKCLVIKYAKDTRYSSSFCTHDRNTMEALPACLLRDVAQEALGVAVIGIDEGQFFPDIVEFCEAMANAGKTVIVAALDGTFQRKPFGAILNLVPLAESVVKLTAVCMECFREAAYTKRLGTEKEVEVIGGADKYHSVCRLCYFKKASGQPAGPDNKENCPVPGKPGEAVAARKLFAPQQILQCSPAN
UniProt Q8TBQ9: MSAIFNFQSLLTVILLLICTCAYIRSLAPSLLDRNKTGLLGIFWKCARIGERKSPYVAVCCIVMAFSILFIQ
UniProt Q96AN5: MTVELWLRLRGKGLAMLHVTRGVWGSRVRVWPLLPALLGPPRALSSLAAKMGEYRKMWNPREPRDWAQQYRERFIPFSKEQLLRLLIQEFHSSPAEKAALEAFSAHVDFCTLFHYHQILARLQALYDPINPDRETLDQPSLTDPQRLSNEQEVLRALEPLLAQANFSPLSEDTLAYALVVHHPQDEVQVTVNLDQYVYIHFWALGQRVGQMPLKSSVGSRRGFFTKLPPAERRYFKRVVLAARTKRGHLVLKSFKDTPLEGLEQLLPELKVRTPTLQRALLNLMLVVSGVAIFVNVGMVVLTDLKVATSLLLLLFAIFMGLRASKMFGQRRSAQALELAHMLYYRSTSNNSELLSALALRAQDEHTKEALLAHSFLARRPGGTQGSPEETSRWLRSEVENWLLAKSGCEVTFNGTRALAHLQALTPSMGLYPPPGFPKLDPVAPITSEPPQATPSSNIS
UniProt Q9NR96: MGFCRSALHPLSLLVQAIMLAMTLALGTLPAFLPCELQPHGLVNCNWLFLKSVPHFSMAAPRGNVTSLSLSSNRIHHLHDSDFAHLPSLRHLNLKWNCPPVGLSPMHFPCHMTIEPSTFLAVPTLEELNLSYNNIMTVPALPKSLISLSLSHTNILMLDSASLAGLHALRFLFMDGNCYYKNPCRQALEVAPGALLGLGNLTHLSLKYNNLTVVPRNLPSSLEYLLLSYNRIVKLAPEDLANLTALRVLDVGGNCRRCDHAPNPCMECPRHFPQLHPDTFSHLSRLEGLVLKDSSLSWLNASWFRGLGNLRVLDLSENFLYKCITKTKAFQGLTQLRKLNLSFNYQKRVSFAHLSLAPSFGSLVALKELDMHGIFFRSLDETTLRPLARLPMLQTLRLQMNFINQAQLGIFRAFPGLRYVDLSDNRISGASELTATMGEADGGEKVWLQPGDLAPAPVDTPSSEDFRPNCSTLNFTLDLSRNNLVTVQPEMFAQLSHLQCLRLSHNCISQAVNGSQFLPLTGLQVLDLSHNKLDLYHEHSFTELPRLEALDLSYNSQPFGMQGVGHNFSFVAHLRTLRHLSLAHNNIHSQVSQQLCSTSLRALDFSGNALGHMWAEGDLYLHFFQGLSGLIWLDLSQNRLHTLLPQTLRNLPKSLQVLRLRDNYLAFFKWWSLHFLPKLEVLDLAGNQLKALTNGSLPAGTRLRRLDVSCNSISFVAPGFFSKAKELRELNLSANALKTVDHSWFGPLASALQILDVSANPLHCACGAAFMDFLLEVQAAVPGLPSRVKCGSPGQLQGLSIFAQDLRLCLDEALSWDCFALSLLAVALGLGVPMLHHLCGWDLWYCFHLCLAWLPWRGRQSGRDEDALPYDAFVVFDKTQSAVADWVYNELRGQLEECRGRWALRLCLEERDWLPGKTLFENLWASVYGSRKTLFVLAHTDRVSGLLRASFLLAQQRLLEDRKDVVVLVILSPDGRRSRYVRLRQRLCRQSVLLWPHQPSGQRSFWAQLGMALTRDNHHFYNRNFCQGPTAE
UniProt P21980: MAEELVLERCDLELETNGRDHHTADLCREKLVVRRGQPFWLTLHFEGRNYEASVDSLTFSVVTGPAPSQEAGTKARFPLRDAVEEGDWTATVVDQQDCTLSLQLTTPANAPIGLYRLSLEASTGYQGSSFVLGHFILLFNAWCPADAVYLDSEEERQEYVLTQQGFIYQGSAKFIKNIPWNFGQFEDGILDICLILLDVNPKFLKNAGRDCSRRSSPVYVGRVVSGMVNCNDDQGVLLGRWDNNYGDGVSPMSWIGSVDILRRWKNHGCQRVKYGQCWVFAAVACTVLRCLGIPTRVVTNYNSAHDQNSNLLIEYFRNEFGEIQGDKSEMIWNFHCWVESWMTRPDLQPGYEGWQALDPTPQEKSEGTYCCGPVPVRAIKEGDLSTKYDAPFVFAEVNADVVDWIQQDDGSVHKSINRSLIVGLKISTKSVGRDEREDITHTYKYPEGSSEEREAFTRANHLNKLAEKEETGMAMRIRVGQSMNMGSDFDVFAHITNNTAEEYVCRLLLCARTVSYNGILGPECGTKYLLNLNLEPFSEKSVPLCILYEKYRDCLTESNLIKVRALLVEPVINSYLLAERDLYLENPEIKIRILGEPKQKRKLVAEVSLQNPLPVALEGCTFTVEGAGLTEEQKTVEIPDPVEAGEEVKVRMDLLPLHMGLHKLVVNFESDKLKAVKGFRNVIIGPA
UniProt P62072: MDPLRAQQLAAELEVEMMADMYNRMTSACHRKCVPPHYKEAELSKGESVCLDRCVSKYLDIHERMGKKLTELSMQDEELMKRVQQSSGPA
UniProt Q96I45: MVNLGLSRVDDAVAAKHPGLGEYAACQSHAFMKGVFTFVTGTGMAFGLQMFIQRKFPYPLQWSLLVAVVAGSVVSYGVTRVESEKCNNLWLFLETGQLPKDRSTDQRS
UniProt Q7Z7H5: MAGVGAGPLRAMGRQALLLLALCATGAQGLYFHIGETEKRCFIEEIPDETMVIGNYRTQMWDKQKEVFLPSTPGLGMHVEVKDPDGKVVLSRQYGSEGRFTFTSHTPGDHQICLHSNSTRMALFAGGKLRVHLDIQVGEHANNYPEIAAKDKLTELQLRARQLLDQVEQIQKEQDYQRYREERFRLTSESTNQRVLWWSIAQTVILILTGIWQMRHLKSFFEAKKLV
UniProt Q01085: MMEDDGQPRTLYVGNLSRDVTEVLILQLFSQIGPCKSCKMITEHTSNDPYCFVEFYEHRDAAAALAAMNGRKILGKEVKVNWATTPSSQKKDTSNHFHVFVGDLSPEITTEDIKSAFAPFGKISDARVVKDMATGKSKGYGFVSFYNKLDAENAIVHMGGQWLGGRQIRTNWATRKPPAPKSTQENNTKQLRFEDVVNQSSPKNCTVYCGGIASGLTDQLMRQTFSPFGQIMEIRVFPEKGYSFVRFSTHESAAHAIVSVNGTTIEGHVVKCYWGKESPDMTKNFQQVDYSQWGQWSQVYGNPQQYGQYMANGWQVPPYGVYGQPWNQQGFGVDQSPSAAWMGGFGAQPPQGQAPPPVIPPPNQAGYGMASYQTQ

The other results are listed elsewhere or left out.

Compound in the first test: CCn1cc(-c2ccnc3[nH]c(-c4cccc(CN(C)C)c4)cc23)c(-c2ccc(NC(=O)N(C)C)cc2)n1
The test is described as follows: log2 fold change, soluble protein after heating vs DMSO (PISA); higher = thermal stabilisation; K562 lysate, 10 uM; active = over 0.2 and 3.5 SD of the protein, either way, in both replicates (recomputed). In a few lines:
(§1)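 Pellets of K562 cells were dounce-homogenised in PBS pH 7.4 with 1 mM MgCl2, and the crude extract was held at 1 mg/mL protein for a 30 min treatment with 10 μM compound. Aliquots were heated for 3 min over 48°C-58°C and pooled before NP-40 was added to 0.5% at 4°C. The supernatant from 21,000xg for 90 min was quantified by TMTpro 16plex LC-MS/MS with channel sums equalised. Values are reported from duplicates as log-two fold change in thermal stability relative to solvent controls.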
With TMCO3 (UniProt Q6UWJ1), the log2 fold change was inactive: 0.167.
Consider TMEM160 (UniProt Q9NX00), for which the log2 fold change is inactive: -0.137.
The same measure, in the same setting: the value for TIMM44 (UniProt O43615) was inactive: -0.02; that for TK2 isoform 6 (UniProt O00142) was inactive: 0.064.
Still for that read-out and setting: the value for TK1 (UniProt K7ERV3) was inactive: -0.102; that for THAP9 (UniProt Q9H5L6) was active: -0.66.
For the target TIMM13 (UniProt Q9Y5L4), the log2 fold change was inactive: 0.
Consider TIMM10B (UniProt Q9Y5J6), for which the log2 fold change was inactive: -0.043.
With TM7SF3 (UniProt Q9NS93), the log2 fold change is inactive: 0.162.
Turning to TMED1 (UniProt Q13445), the log2 fold change was inactive: 0.022.
With TMEM123 (UniProt Q8N131), the log2 fold change was inactive: 0.06.
With TIMM21 (UniProt Q9BVV7), the log2 fold change was inactive: -0.066.
On the same count and under the same terms, the result for TM6SF1 (UniProt Q9BZW5) reads inactive: -0.104.
In the case of THAP11 (UniProt Q96EK4), the log2 fold change is inactive: -0.041.
The same measure, in the same setting: the result for THOC7 (UniProt Q6I9Y2) reads inactive: 0.014; that for TKFC (UniProt Q3LXA3), inactive: -0.054; that for TMEM181 (UniProt Q9P2C4), inactive: 0.124.
On to TK1 (UniProt P04183), for which the log2 fold change was inactive: -0.124.
With TMEM167A (UniProt Q8TBQ9), the log2 fold change was inactive: -0.162.
For TMEM104 (UniProt Q8NE00), the log2 fold change is inactive: -0.034.
With TJP1 (UniProt G3V1L9), the log2 fold change is inactive: 0.04.
As for TMEM161B (UniProt Q8NDZ6), the log2 fold change was inactive: 0.055.
Take TMEM143 (UniProt Q96AN5): the log2 fold change is inactive: 0.114.
Same read-out and setting: the value for TLR9 isoform 4 (UniProt Q9NR96) was inactive: 0.209.
On to TMEM177 (UniProt Q53S58), for which the log2 fold change was inactive: 0.056.
The same measure, in the same setting: the result for TGM2 (UniProt P21980) reads inactive: -0.021; that for TIMM10 (UniProt P62072), inactive: -0.09.
For TMEM141 (UniProt Q96I45), the log2 fold change is inactive: -0.058.
On the same count and under the same terms, the result for TMED4 (UniProt Q7Z7H5) reads inactive: 0.475; that for TMEM167B (UniProt Q9NRX6), active: -0.472; that for TKT isoform 2 (UniProt P29401), inactive: -0.029.
Consider TGOLN2 isoform 7 (UniProt O43493), for which the log2 fold change was inactive: -0.012.
For the target TIAL1 isoform 2 (UniProt Q01085), the log2 fold change is inactive: -0.076.

Compound in another test: CN1CCC(CNc2ccc3ncc(-c4cccc(OC(F)(F)F)c4)n3n2)CC1
Described as above. An outline of the steps:
as §1
Consider TMCO3 (UniProt Q6UWJ1), for which the log2 fold change is inactive: 0.052.
As to TMEM160 (UniProt Q9NX00), the log2 fold change was inactive: 0.026.
Regarding TIMM44 (UniProt O43615), the log2 fold change was inactive: -0.065.
For TK2 isoform 6 (UniProt O00142), the log2 fold change was inactive: 0.013.
Still for that read-out and setting: the result for TK1 (UniProt K7ERV3) reads inactive: 0.068.
Turning to THAP9 (UniProt Q9H5L6), the log2 fold change was inactive: 0.151.
TIMM13 (UniProt Q9Y5L4): the log2 fold change was inactive: 0.029.
On to TIMM10B (UniProt Q9Y5J6), for which the log2 fold change was inactive: -0.031.
The same measure, in the same setting: the value for TM7SF3 (UniProt Q9NS93) was inactive: -0.126; that for TMED1 (UniProt Q13445) was inactive: -0.013.
Consider TMEM123 (UniProt Q8N131), for which the log2 fold change was inactive: 0.021.
Consider TIMM21 (UniProt Q9BVV7), for which the log2 fold change is inactive: -0.082.
Consider TM6SF1 (UniProt Q9BZW5), for which the log2 fold change was inactive: 0.179.
Regarding THAP11 (UniProt Q96EK4), the log2 fold change is inactive: 0.063.
Still for that read-out and setting: the result for THOC7 (UniProt Q6I9Y2) reads inactive: -0.038; that for TKFC (UniProt Q3LXA3), inactive: 0.044; that for TMEM181 (UniProt Q9P2C4), inactive: -0.004.
With TK1 (UniProt P04183), the log2 fold change is inactive: 0.104.
Consider TMEM167A (UniProt Q8TBQ9), for which the log2 fold change is inactive: 0.063.
TMEM104 (UniProt Q8NE00): the log2 fold change was inactive: 0.041.
Regarding TJP1 (UniProt G3V1L9), the log2 fold change is inactive: -0.004.
For the target TMEM161B (UniProt Q8NDZ6), the log2 fold change is inactive: -0.104.
TMEM143 (UniProt Q96AN5): the log2 fold change was inactive: -0.056.
As for TLR9 isoform 4 (UniProt Q9NR96), the log2 fold change was inactive: 0.086.
For TMEM177 (UniProt Q53S58), the log2 fold change was inactive: -0.161.
Regarding TGM2 (UniProt P21980), the log2 fold change was inactive: -0.002.
As for TIMM10 (UniProt P62072), the log2 fold change was inactive: 0.087.
Turning to TMEM141 (UniProt Q96I45), the log2 fold change is inactive: 0.036.
For TMED4 (UniProt Q7Z7H5), the log2 fold change was inactive: -0.019.
The same measure, in the same setting: the result for TMEM167B (UniProt Q9NRX6) reads inactive: 0.086; that for TKT isoform 2 (UniProt P29401), inactive: 0.037.
Consider TGOLN2 isoform 7 (UniProt O43493), for which the log2 fold change was inactive: 0.036.
For TIAL1 isoform 2 (UniProt Q01085), the log2 fold change is inactive: 0.056.

Compound in the next test: CN1CCN(CCOc2cc(OC3CCOCC3)c3c(Nc4c(Cl)ccc5c4OCO5)ncnc3c2)CC1 [saracatinib]
The description is as above. In a few lines: as §1
Consider TMEM160 (UniProt Q9NX00), for which the log2 fold change was inactive: -0.049.
The same measure, in the same setting: the result for TIGAR (UniProt Q9NQ88) reads inactive: -0.011; that for TIMM44 (UniProt O43615), inactive: 0.012; that for TK2 isoform 6 (UniProt O00142), inactive: 0.155.
With TK1 (UniProt K7ERV3), the log2 fold change is inactive: 0.089.
For the target THAP9 (UniProt Q9H5L6), the log2 fold change is inactive: 0.
On the same count and under the same terms, the value for TIMM13 (UniProt Q9Y5L4) was inactive: -0.03.
TIMM10B (UniProt Q9Y5J6): the log2 fold change is inactive: 0.116.
On to TM7SF3 (UniProt Q9NS93), for which the log2 fold change was inactive: 0.05.
TMED1 (UniProt Q13445): the log2 fold change was inactive: 0.16.
As to TMEM123 (UniProt Q8N131), the log2 fold change is inactive: 0.002.
For the target TIMM21 (UniProt Q9BVV7), the log2 fold change is inactive: 0.012.
Same read-out and setting: the result for TMEM120B (UniProt A0PK00) reads inactive: 0.071.
For TM6SF1 (UniProt Q9BZW5), the log2 fold change was inactive: 0.002.
The same measure, in the same setting: the value for THAP11 (UniProt Q96EK4) was inactive: -0.033.
Turning to THOC7 (UniProt Q6I9Y2), the log2 fold change was inactive: 0.01.
TKFC (UniProt Q3LXA3): the log2 fold change is inactive: -0.003.
Regarding TMEM181 (UniProt Q9P2C4), the log2 fold change was inactive: -0.017.
For the target TK1 (UniProt P04183), the log2 fold change is inactive: -0.002.
For the target TMEM167A (UniProt Q8TBQ9), the log2 fold change is inactive: 0.002.
On the same count and under the same terms, the result for TMEM14C (UniProt Q9P0S9) reads inactive: -0.088; that for TJP1 (UniProt G3V1L9), inactive: 0.096; that for TMEM143 (UniProt Q96AN5), inactive: -0.007.
Regarding TLR9 isoform 4 (UniProt Q9NR96), the log2 fold change is inactive: -0.014.
Take TGM2 (UniProt P21980): the log2 fold change is inactive: 0.027.
Consider TIMM10 (UniProt P62072), for which the log2 fold change was inactive: 0.008.
With TMEM141 (UniProt Q96I45), the log2 fold change is inactive: 0.001.
Regarding TMED4 (UniProt Q7Z7H5), the log2 fold change is inactive: 0.
As for TM9SF1 (UniProt O15321), the log2 fold change is inactive: 0.051.
As to TMEM127 (UniProt O75204), the log2 fold change is inactive: 0.002.
As to TKT isoform 2 (UniProt P29401), the log2 fold change was inactive: 0.034.
In the case of TGOLN2 isoform 7 (UniProt O43493), the log2 fold change was inactive: -0.033.
As to TIAL1 isoform 2 (UniProt Q01085), the log2 fold change is inactive: -0.02.
